From the supplement of paper PMC12542422
Where a name gives a salt, the structure may show the parent alone. ± gives the standard deviation of the averaged measurements. The list shows a part of the results. Values are raw readings; no control value is given beside them.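 Across three biological replicates, HeLa cells were imaged for ribosome assembly using ENP1 staining (export block present or absent) or inducible tagged ribosomal protein reporters. Machine learning classified each cell's signal localization relative to DMSO controls. Hits exceeded the DMSO false-positive mean by five standard deviations and were then visually confirmed.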

tested on: HeLa RPS2-YFP reporter; test: fraction of reporter-positive cells with nuclear (nucleolar or nucleolar/nucleoplasmic) RPS2-YFP (MainHitrate); higher = more cells with nucleolar/nuclear readout signal (for ENP1 -LMB: less RNAPI inhibition; for +LMB ENP1 and RP reporters: stronger nuclear/nucleolar retention, i.e. ribosome biogenesis defect); details: concentration: 1 µM; treatment time: 6 h

Structure (SMILES)	fraction of reporter-positive cells with nuclear
CN1CCC[C@H]1c1cccnc1 [Nicotine Ditartrate]	0.155 ± 0.16
CCOC(=O)C1=C(COCCN)NC(C)=C(C(=O)OC)C1c1ccccc1Cl (configuration not stated) [Amlodipine (Norvasc)]	0.138 ± 0.081
C[C@]12CC[C@@H]3c4ccc(O)cc4C[C@@H](CCCCCCCCC[S+]([O-])CCCC(F)(F)C(F)(F)F)[C@H]3[C@@H]1CC[C@@H]2O (some centres not stated) [Fulvestrant (Faslodex)]	0.111 ± 0.077
COc1ccc(O)cc1 [Mequinol]	0.112 ± 0.11
Nc1cccc2c1CN(C1CCC(=O)NC1=O)C2=O (configuration not stated) [Lenalidomide]	0.102 ± 0.1
O=C(O)COCCN1CCN(C(c2ccccc2)c2ccc(Cl)cc2)CC1 (configuration not stated) [Cetirizine Dihydrochloride]	0.214 ± 0.23
COCCOC(=O)C1=C(C)NC(C)=C(C(=O)OC(C)C)C1c1cccc([N+](=O)[O-])c1 (configuration not stated) [Nimodipine (Nimotop)]	0.124 ± 0.098
CN1CCCC(n2nc(Cc3ccc(Cl)cc3)c3ccccc3c2=O)CC1 (configuration not stated) [Azelastine hydrochloride (Astelin)]	0.134 ± 0.081
CC(C)OC(=O)OCOP(=O)(CO[C@H](C)Cn1cnc2c(N)ncnc21)OCOC(=O)OC(C)C [Tenofovir Disoproxil Fumarate]	0.115 ± 0.061
OC[C@@H](O)[C@@H](O)[C@H](O)[C@H](O)CO [D-Mannitol (Osmitrol)]	0.128 ± 0.093
CC(C)OC(=O)C(C)(C)Oc1ccc(C(=O)c2ccc(Cl)cc2)cc1 [Fenofibrate (Tricor, Trilipix)]	0.128 ± 0.081
Cc1ccc(C)c(OCCCC(C)(C)C(=O)O)c1 [Gemfibrozil (Lopid)]	0.106 ± 0.069
C[C@]12CCC(=O)C=C1[C@@H]1C[C@@H]1[C@H]1[C@@H]3[C@@H]4C[C@@H]4[C@@]4(CCC(=O)O4)[C@@]3(C)CC[C@@H]12 [Drospirenone]	0.123 ± 0.099
O=C1c2cccc3c2[C@H](CCC3)CN1[C@@H]1CN2CCC1CC2 [Palonosetron HCl]	0.12 ± 0.091
CN(Cc1cnc2nc(N)nc(N)c2n1)c1ccc(C(=O)N[C@@H](CCC(=O)O)C(=O)O)cc1 [Abitrexate (Methotrexate)]	0.0974 ± 0.056
Cc1ccc(C(=O)c2ccc(CC(=O)O)n2C)cc1 [Tolmetin Sodium]	0.178 ± 0.18

Structure (SMILES)	fraction of reporter-positive cells with nuclear
C=C1CC[C@H](O)C/C1=C/C=C1\CCC[C@]2(C)[C@@H]([C@H](C)CCCC(C)C)CC[C@@H]12 [Vitamin D3 (Cholecalciferol)]	0.1 ± 0.1
NCC[C@H](O)C(=O)N[C@@H]1C[C@H](N)[C@@H](O[C@H]2O[C@H](CN)[C@@H](O)[C@H](O)[C@H]2O)[C@H](O)[C@H]1O[C@H]1O[C@H](CO)[C@@H](O)[C@H](N)[C@H]1O [Amikacin sulfate]	0.121 ± 0.086
CN1CCc2cccc3c2[C@H]1Cc1ccc(O)c(O)c1-3 [R-(-)-Apomorphine HCl Hemihydrate]	0.201 ± 0.17
Cc1nccn1CC1CCc2c(c3ccccc3n2C)C1=O (configuration not stated) [Ondansetron (Zofran)]	0.11 ± 0.06
N[C@@H](Cc1cc(I)c(Oc2cc(I)c(O)c(I)c2)c(I)c1)C(=O)O [L-Thyroxine]	0.0954 ± 0.053
O=C(O)CCCN1CCC(O[C@@H](c2ccc(Cl)cc2)c2ccccn2)CC1 [Bepotastine Besilate]	0.122 ± 0.11
CC[C@@H]([C@H](C)O)n1ncn(-c2ccc(N3CCN(c4ccc(OC[C@@H]5CO[C@@](Cn6cncn6)(c6ccc(F)cc6F)C5)cc4)CC3)cc2)c1=O [Posaconazole]	0.146 ± 0.086
CNCC[C@@H](Oc1ccccc1C)c1ccccc1 [Atomoxetine HCl]	0.15 ± 0.058
CCN(CC)CCCC(C)Nc1ccnc2cc(Cl)ccc12 (configuration not stated) [Chloroquine Phosphate]	0.0898 ± 0.068
CC(C[N+](C)(C)C)OC(N)=O (configuration not stated) [Bethanechol chloride]	0.106 ± 0.058
COC(=O)Nc1nc2cc(Sc3ccccc3)ccc2[nH]1 [Fenbendazole (Panacur)]	0.135 ± 0.097
Nc1ccn([C@@H]2CS[C@H](CO)O2)c(=O)n1 [Lamivudine (Epivir)]	0.109 ± 0.083
CC(=O)Oc1ccccc1C(=O)O [Aspirin (Acetylsalicylic acid)]	0.116 ± 0.095
Cc1cccc(N(C)C(=S)Oc2ccc3ccccc3c2)c1 [Tolnaftate]	0.149 ± 0.1
CC[C@@]1(O)C(=O)OCc2c1cc1n(c2=O)Cc2cc3c(CN(C)C)c(O)ccc3nc2-1 [Topotecan HCl]	0.0686 ± 0.03
C[C@]12CCC3=C4CCC(=O)C=C4CC[C@H]3[C@@H]1CC[C@@]2(O)CC#N [Dienogest]	0.117 ± 0.075

Single values from above.
In fraction of reporter-positive cells with nuclear, CC[C@@H]([C@H](C)O)n1ncn(-c2ccc(N3CCN(c4ccc(OC[C@@H]5CO[C@@](Cn6cncn6)(c6ccc(F)cc6F)C5)cc4)CC3)cc2)c1=O [Posaconazole] is entered as 0.146 ± 0.086
In fraction of reporter-positive cells with nuclear, CC(C[N+](C)(C)C)OC(N)=O (configuration not stated) [Bethanechol chloride] is entered as 0.106 ± 0.058
